Results are given in words; binding and its absence hold for the method and conditions named. For part of these data: Tags and fused reporters may be left off the sequences shown.
Legend:
[1] = molecular target: MRPP1_(MT+C(Δ194)) (MT domain with C extension, aa 195–403), expressed alone (human) (UniProt Q7L0Y3); test: SEC; analytical SEC of single proteins, Superdex S200 10/300 GL (or KW403-4F), apparent mass from standards of known Mr, n = 3; both purified
[2] = molecular target: MRPP3_(Δ206) (aa 207–583) (human) (UniProt O15091); test: SEC-SAXS; KW403-4F column in line with SAXS, 4.5 mg/ml; 50 mM sodium phosphate pH 7.4, 300 mM NaCl, 5% glycerol, 1% sucrose, 0.5 mM TCEP (for MRPP1, MRPP2 and MRPP1–MRPP2; buffer for MRPP3 alone not told); no tRNA; both purified
[3] = molecular target: MRPP3_(ΔMTS) (mature mitochondrial RNase P protein 3, aa 51–583) (human) (UniProt O15091); test: SEC; analytical SEC of single proteins, Superdex S200 10/300 GL (or KW403-4F), apparent mass from standards of known Mr, n = 3; both purified
[4] = molecular target: T1, MRPP2 (HSD17B10), expressed alone, tag removed (human) (UniProt Q99714); test: SEC; analytical SEC of preincubated protein mixtures with MRPP3, Superdex S200, without pre-(mt)tRNA; both purified
T1 sequence: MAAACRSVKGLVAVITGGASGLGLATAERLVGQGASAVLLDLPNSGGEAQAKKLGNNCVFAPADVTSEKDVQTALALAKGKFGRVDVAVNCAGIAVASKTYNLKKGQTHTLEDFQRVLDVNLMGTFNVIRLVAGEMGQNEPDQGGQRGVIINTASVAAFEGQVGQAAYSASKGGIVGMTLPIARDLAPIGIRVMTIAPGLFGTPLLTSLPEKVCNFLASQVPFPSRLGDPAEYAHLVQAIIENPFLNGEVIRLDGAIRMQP

[5] = molecular target: MRPP3_(ΔMTS) (mature mitochondrial RNase P protein 3, aa 51–583) (human) (UniProt O15091); test: SEC-SAXS; KW403-4F column in line with SAXS, 4.5 mg/ml; 50 mM sodium phosphate pH 7.4, 300 mM NaCl, 5% glycerol, 1% sucrose, 0.5 mM TCEP (for MRPP1, MRPP2 and MRPP1–MRPP2; buffer for MRPP3 alone not told); no tRNA; both purified
[6] = molecular target: T2, MRPP1_(ΔMTS)–MRPP2 complex (human) (UniProt Q7L0Y3+Q99714); test: SEC; analytical SEC of protein mixtures incubated with excess pre-(mt)tRNA^Ile, Superdex S200; fractions on SDS-PAGE and urea-PAGE; both purified
T2 sequence 1: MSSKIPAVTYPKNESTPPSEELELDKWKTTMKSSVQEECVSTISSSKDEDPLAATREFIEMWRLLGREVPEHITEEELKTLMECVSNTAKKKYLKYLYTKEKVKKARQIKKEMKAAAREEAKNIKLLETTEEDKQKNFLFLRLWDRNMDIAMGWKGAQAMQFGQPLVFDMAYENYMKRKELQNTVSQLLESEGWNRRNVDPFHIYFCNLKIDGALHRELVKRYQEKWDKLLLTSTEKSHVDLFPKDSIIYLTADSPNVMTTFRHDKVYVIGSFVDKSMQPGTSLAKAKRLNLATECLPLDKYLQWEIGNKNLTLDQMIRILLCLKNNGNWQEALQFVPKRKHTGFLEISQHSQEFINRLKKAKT
T2 sequence 2: T1 sequence

B1: MRPP1_(MT+C(Δ194)) (MT domain with C extension, aa 195–403), expressed alone (domain or fragment, UniProt Q7L0Y3 195-403)
chain: GAQAMQFGQPLVFDMAYENYMKRKELQNTVSQLLESEGWNRRNVDPFHIYFCNLKIDGALHRELVKRYQEKWDKLLLTSTEKSHVDLFPKDSIIYLTADSPNVMTTFRHDKVYVIGSFVDKSMQPGTSLAKAKRLNLATECLPLDKYLQWEIGNKNLTLDQMIRILLCLKNNGNWQEALQFVPKRKHTGFLEISQHSQEFINRLKKAKT
- binding [1]: no binding

B2: MRPP3_(Δ206) (aa 207–583) (domain or fragment, UniProt O15091 207-583)
chain: TLEPRGYSLLIRGLIHSDRWREALLLLEDIKKVITPSKKNYNDCIQGALLHQDVNTAWNLYQELLGHDIVPMLETLKAFFDFGKDIKDDNYSNKLLDILSYLRNNQLYPGESFAHSIKTWFESVPGKQWKGQFTTVRKSGQCSGCGKTIESIQLSPEEYECLKGKIMRDVIDGGDQYRKTTPQELKRFENFIKSRPPFDVVIDGLNVAKMFPKVRESQLLLNVVSQLAKRNLRLLVLGRKHMLRRSSQWSRDEMEEVQKQASCFFADDISEDDPFLLYATLHSGNHCRFITRDLMRDHKACLPDAKTQRLFFKWQQGHQLAIVNRFPGSKLTFQRILSYDTVVQTTGDSWHIPYDEDLVERCSCEVPTKWLCLHQKT
- binding [2]: no binding

B3: MRPP3_(ΔMTS) (mature mitochondrial RNase P protein 3, aa 51–583) (protein, UniProt O15091 51-583)
chain: MSPQNTKATNLIAKARYLRKDEGSNKQVYSVPHFFLAGAAKERSQMNSQTEDHALAPVRNTIQLPTQPLNSEEWDKLKEDLKENTGKTSFESWIISQMAGCHSSIDVAKSLLAWVAAKNNGIVSYDLLVKYLYLCVFHMQTSEVIDVFEIMKARYKTLEPRGYSLLIRGLIHSDRWREALLLLEDIKKVITPSKKNYNDCIQGALLHQDVNTAWNLYQELLGHDIVPMLETLKAFFDFGKDIKDDNYSNKLLDILSYLRNNQLYPGESFAHSIKTWFESVPGKQWKGQFTTVRKSGQCSGCGKTIESIQLSPEEYECLKGKIMRDVIDGGDQYRKTTPQELKRFENFIKSRPPFDVVIDGLNVAKMFPKVRESQLLLNVVSQLAKRNLRLLVLGRKHMLRRSSQWSRDEMEEVQKQASCFFADDISEDDPFLLYATLHSGNHCRFITRDLMRDHKACLPDAKTQRLFFKWQQGHQLAIVNRFPGSKLTFQRILSYDTVVQTTGDSWHIPYDEDLVERCSCEVPTKWLCLHQKT
- binding [3]: no binding
- binding [4]: no binding
- binding [5]: no binding

B4: MRPP3C (C-terminal region of MRPP3, aa 274–583) (domain or fragment, UniProt O15091 274-583)
chain: DIVPMLETLKAFFDFGKDIKDDNYSNKLLDILSYLRNNQLYPGESFAHSIKTWFESVPGKQWKGQFTTVRKSGQCSGCGKTIESIQLSPEEYECLKGKIMRDVIDGGDQYRKTTPQELKRFENFIKSRPPFDVVIDGLNVAKMFPKVRESQLLLNVVSQLAKRNLRLLVLGRKHMLRRSSQWSRDEMEEVQKQASCFFADDISEDDPFLLYATLHSGNHCRFITRDLMRDHKACLPDAKTQRLFFKWQQGHQLAIVNRFPGSKLTFQRILSYDTVVQTTGDSWHIPYDEDLVERCSCEVPTKWLCLHQKT
- binding [6]: no binding

From PMC6102140, “Structural insight into the human mitochondrial tRNA purine N1-methyltransferase and ribonuclease P complexes” (The Journal of Biological Chemistry, 2018)
